The supplement of paper PMC6411743
± gives the standard deviation of the averaged measurements. The entries are a selection whose mix differs from that of the whole data set.

Sequences of proteins named here, by UniProt entry; tags and fusion partners are left off. A change or cut given only in a name is not applied to a line headed by its entry.
UniProt Q14061: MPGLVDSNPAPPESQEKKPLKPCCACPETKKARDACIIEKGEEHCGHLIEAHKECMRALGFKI
UniProt Q13425: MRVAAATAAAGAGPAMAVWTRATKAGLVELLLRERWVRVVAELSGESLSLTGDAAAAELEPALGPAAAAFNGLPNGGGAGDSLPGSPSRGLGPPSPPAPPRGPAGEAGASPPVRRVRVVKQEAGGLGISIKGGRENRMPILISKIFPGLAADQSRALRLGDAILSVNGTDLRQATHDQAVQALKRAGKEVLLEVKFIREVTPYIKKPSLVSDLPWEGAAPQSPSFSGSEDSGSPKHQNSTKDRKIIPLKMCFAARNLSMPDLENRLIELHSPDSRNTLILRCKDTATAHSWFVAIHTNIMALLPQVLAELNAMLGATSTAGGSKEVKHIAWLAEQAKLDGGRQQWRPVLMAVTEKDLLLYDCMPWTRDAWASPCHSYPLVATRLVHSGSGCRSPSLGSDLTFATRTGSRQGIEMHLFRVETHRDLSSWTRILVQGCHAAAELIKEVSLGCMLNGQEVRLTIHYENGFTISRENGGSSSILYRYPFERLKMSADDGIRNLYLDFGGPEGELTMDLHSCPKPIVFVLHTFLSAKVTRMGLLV
UniProt Q14738, whole entry: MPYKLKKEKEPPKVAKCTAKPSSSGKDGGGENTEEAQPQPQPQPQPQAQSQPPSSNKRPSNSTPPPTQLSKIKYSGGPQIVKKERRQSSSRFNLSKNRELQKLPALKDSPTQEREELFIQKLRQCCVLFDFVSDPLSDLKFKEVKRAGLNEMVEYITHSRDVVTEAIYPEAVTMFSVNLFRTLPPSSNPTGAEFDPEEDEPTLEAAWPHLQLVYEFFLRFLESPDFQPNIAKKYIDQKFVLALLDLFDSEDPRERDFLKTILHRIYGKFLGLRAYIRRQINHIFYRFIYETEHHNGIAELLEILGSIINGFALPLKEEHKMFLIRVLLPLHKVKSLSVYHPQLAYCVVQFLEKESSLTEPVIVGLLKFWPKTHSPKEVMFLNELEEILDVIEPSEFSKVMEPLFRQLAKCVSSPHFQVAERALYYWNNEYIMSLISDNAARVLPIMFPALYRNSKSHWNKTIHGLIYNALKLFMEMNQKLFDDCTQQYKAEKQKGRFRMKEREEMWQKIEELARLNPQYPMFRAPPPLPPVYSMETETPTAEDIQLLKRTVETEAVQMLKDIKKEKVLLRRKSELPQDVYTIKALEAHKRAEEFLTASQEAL
UniProt Q13216, whole entry: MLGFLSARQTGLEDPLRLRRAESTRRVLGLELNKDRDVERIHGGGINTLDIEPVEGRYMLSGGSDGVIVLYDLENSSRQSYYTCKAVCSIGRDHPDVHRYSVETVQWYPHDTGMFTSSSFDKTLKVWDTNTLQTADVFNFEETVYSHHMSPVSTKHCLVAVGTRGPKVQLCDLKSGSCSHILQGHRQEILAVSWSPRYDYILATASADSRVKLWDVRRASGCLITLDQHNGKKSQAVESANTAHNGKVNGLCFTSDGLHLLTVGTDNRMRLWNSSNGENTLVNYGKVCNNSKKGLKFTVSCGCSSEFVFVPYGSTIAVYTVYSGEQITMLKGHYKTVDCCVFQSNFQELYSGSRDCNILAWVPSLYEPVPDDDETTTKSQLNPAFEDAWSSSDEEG
UniProt Q14693: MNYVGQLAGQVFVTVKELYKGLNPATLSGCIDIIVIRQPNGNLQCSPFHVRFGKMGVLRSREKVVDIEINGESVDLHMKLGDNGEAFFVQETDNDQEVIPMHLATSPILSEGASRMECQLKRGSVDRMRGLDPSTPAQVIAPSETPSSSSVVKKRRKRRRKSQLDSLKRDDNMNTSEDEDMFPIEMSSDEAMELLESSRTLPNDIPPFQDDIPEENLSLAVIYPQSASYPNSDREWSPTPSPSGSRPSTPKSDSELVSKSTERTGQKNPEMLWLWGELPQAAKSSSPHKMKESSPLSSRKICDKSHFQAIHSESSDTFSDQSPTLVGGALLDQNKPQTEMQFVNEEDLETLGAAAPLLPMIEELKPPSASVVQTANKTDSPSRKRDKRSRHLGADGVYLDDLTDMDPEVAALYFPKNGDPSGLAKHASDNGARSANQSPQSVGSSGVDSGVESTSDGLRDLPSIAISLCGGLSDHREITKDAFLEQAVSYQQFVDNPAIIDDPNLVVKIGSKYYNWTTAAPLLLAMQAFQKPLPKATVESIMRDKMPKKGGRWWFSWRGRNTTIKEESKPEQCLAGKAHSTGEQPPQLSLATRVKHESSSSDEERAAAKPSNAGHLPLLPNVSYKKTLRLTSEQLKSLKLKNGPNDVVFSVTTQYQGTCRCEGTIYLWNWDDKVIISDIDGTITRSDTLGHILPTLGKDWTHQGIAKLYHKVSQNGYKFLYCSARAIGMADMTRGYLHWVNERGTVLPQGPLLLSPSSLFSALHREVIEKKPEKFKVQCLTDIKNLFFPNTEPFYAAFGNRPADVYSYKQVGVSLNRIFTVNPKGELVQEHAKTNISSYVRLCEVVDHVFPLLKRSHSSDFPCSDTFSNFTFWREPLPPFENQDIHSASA
UniProt Q15054: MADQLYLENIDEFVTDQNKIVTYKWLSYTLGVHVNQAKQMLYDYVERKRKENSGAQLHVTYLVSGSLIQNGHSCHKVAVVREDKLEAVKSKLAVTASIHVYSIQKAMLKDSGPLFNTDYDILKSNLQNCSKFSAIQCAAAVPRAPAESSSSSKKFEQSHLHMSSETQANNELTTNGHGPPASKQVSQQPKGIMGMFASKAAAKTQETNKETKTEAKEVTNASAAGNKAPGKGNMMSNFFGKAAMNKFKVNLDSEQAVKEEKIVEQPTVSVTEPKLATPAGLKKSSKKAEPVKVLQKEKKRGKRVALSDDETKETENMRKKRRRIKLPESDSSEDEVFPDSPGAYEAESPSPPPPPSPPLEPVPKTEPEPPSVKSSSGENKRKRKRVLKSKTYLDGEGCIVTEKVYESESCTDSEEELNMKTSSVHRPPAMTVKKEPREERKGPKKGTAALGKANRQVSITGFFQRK
UniProt Q13151: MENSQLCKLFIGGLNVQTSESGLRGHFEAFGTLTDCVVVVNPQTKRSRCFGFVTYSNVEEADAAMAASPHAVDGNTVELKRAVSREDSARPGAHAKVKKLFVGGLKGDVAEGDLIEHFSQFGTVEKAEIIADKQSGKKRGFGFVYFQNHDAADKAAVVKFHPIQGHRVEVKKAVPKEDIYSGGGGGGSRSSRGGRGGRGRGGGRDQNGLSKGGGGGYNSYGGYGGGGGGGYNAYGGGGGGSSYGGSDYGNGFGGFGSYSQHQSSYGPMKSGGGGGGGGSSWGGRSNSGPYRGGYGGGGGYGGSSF
UniProt Q12906, whole entry: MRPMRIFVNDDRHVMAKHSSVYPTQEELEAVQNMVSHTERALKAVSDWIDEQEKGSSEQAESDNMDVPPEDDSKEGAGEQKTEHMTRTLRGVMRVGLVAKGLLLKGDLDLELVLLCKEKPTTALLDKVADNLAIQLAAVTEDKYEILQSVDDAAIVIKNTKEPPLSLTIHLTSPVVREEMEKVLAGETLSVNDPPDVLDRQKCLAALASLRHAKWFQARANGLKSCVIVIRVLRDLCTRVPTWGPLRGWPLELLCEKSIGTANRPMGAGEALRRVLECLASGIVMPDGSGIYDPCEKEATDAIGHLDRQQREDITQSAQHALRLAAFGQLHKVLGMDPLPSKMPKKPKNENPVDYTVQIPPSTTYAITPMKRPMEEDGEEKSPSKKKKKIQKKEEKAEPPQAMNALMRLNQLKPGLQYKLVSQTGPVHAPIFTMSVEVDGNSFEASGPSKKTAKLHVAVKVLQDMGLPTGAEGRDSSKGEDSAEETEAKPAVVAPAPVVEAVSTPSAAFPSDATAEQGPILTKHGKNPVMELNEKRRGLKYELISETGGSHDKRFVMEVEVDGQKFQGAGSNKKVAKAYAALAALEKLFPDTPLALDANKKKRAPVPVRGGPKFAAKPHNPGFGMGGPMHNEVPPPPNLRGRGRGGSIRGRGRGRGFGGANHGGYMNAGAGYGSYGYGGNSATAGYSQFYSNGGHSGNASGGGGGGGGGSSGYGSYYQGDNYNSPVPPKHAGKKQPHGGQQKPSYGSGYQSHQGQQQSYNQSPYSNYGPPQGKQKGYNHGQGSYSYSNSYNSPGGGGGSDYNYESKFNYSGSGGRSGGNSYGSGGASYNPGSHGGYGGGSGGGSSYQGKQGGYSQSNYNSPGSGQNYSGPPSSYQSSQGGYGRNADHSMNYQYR
UniProt Q14444, whole entry: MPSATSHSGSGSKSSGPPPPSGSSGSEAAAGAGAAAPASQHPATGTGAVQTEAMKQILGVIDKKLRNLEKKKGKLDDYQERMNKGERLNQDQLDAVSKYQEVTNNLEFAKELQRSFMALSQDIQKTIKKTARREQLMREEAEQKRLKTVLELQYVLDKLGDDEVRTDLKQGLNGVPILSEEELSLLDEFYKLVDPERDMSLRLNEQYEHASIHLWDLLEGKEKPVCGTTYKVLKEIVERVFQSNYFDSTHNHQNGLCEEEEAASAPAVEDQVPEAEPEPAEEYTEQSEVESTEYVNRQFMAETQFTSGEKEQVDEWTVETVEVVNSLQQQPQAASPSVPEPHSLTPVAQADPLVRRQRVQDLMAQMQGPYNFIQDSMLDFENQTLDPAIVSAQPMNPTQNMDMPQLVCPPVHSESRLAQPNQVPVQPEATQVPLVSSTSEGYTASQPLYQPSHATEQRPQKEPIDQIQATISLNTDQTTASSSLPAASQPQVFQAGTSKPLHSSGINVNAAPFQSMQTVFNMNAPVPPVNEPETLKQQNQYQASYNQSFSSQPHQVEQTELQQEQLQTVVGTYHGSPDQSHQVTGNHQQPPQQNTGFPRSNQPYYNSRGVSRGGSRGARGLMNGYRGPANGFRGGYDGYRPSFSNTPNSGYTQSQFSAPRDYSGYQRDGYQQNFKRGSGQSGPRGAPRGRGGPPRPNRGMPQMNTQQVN
UniProt Q13395: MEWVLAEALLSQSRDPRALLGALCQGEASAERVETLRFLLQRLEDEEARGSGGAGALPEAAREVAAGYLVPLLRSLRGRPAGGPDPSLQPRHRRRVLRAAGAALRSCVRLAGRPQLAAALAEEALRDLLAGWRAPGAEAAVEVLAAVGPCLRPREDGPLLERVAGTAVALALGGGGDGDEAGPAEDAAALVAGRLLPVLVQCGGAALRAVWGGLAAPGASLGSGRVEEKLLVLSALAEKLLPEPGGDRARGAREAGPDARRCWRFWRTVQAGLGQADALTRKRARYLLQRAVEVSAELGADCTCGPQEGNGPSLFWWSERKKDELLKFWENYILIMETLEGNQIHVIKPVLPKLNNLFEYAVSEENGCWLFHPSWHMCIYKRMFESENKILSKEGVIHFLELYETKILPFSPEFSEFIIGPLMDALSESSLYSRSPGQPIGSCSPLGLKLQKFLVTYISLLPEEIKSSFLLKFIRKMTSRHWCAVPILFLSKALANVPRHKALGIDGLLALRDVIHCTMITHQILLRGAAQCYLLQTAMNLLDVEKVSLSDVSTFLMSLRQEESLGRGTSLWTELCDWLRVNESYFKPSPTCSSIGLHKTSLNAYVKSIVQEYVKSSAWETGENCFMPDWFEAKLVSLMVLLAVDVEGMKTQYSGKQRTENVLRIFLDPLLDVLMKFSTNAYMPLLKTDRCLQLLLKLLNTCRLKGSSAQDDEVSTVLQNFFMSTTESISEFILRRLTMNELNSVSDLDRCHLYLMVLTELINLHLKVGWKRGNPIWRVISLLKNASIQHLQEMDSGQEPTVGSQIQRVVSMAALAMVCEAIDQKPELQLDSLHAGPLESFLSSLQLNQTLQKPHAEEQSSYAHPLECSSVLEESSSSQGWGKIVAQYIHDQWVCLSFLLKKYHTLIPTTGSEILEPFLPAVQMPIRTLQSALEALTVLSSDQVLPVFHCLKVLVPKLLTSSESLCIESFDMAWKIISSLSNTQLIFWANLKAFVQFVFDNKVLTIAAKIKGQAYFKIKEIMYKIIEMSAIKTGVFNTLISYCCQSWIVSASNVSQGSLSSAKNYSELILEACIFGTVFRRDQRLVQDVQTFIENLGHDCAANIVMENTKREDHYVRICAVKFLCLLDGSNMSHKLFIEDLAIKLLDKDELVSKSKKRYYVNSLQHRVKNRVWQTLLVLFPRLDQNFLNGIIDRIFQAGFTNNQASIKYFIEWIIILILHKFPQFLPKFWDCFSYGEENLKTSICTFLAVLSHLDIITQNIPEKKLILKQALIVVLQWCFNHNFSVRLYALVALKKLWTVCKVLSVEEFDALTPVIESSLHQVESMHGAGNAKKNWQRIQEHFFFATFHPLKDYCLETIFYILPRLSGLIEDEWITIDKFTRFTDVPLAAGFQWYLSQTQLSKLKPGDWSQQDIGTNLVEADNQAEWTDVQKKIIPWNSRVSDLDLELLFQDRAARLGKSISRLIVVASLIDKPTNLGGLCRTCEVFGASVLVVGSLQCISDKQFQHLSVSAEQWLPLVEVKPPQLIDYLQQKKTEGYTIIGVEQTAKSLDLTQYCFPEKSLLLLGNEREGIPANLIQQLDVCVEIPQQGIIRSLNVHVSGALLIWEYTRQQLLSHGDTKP

Compound: Nc1ncnc2c1ncn2[C@@H]1O[C@H](COP(=O)(O)OP(=O)(O)NP(=O)(O)O)[C@@H](O)[C@H]1O [adenylyl imidodiphosphate]
Assay: NP40-soluble protein abundance relative to vehicle (solubility fold change) (ratio); higher = more soluble protein in presence of AMP-PNP
How it was run: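 Crude Jurkat lysate, prepared by Dounce homogenisation, was exposed to eight concentrations from 0.1 to 10 mM for 10 min at room temperature and then 3 min at 37 °C. Solubilisation used 0.8% NP40 with benzonase for 60 min at 4 °C, followed by ultracentrifugation and TMT labelling of the supernatant for LC-MS/MS. After vsn normalisation of intensities, each value is the fold change against the detergent-processed vehicle within each replicate, across three independent experiments.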

Target	NP40-soluble protein abundance (concentration: 1mM)	NP40-soluble protein abundance (concentration: 2mM)	NP40-soluble protein abundance (concentration: 4mM)	NP40-soluble protein abundance (concentration: 6mM)	NP40-soluble protein abundance (concentration: 8mM)	NP40-soluble protein abundance (concentration: 10mM)
COX17 (UniProt Q14061)	1 ± 0.028	1.05 ± 0.045	1 ± 0.018	0.925 ± 0.029	0.911 ± 0.015	0.928 ± 0.053
SNTB2 (UniProt Q13425)	1.001 ± 0.0065	0.975 ± 0.022	1.04 ± 0.023	0.991 ± 0.044	1.03 ± 0.022	1.01 ± 0.018
UniProt Q14643 and related entries	0.996 ± 0.061	0.944 ± 0.11	1.01 ± 0.063	0.967 ± 0.11	0.957 ± 0.11	0.949 ± 0.13
PPP2R5D (UniProt Q14738)	1.01 ± 0.024	1.04 ± 0.052	0.997 ± 0.026	0.975 ± 0.01	0.945 ± 0.015	0.971 ± 0.016
ERCC8 (UniProt Q13216)	0.983 ± 0.02	0.996 ± 0.021	1.01 ± 0.028	0.9696 ± 0.0035	0.995 ± 0.022	0.995 ± 0.027
UniProt Q14693 and related entries	0.991 ± 0.029	1 ± 0.053	0.99 ± 0.03	1.01 ± 0.062	1.01 ± 0.04	1.01 ± 0.03
UniProt Q13627 and related entries	1.01 ± 0.0097	0.9868 ± 0.0037	0.985 ± 0.025	0.994 ± 0.016	1.028 ± 0.0074	1.03 ± 0.044
UniProt Q15054 and related entries	1.02 ± 0.028	1.01 ± 0.037	0.9859 ± 0.0026	0.948 ± 0.02	0.9417 ± 0.0086	0.954 ± 0.013
HNRNPA0 (UniProt Q13151)	1.02 ± 0.063	1.073 ± 0.0027	1.03 ± 0.039	1.05 ± 0.028	1.04 ± 0.059	1.07 ± 0.059
UniProt Q12906 and related entries	1.07 ± 0.069	1.119 ± 0.011	1.13 ± 0.068	1.16 ± 0.088	1.16 ± 0.093	1.22 ± 0.12
EIF4EBP1 (UniProt Q13541)	0.949 ± 0.016	1.032 ± 0.008	0.998 ± 0.1	0.9563 ± 0.0018	0.961 ± 0.059	0.96 ± 0.047
UniProt Q14444 and related entries	1.12 ± 0.041	1.22 ± 0.17	1.16 ± 0.064	1.19 ± 0.13	1.19 ± 0.094	1.25 ± 0.08
UniProt Q12981 and related entries	1.002 ± 0.0086	1.03 ± 0.063	1 ± 0.024	1.01 ± 0.023	0.996 ± 0.016	0.986 ± 0.026
TARBP1 (UniProt Q13395)	0.978 ± 0.037	0.888 ± 0.039	0.962 ± 0.025	0.953 ± 0.033	0.98 ± 0.03	0.95 ± 0.018
UniProt Q15118 and related entries	1.004 ± 0.002	1.01 ± 0.028	1.02 ± 0.0094	1 ± 0.021	1.02 ± 0.016	0.994 ± 0.013

An excerpt from above, limited to NP40-soluble protein abundance (concentration: 8mM) and NP40-soluble protein abundance (concentration: 6mM).
Target,NP40-soluble protein abundance (concentration: 8mM),NP40-soluble protein abundance (concentration: 6mM)
UniProt Q12981 and related entries,0.996 ± 0.016,1.01 ± 0.023
TARBP1 (UniProt Q13395),0.98 ± 0.03,0.953 ± 0.033
